Laboratory results: PubChem BioAssay AID686938 (Drosophila RNAi Screening Center, 2013)

Test: 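Knock-downs reducing store-operated calcium influx in Drosophila cells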 (primary screen)
System: Drosophila S2R+ cells
Knock-down reagent: long dsRNA against Drosophila genes, about 0.25 µg dsRNA per well, roughly 10,000 cells
Duration: 5 days of knock-down before the calcium assay
Treatment: thapsigargin (SERCA pump blocker) to empty calcium stores; entry signal taken 4 min after adding it
Read-out: 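Per-well fluo-4 fluorescence in two replicates, unnormalised, measured in resting cells and 4 min after store depletion by the SERCA blocker thapsigargin; ratio of the two present in few wells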
Reading the numbers: calcium entry signal: higher = stronger calcium signal after store depletion; resting calcium signal: higher = higher resting calcium signal
Call rule: 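Hit if the duplicate-averaged plate z-score for entry over resting signal is under −3; wells with weak total dye signal (Fmax z < −2) or more than 5 off-targets removed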
Calls: active = strongly reduced calcium entry; inactive = no strong reduction
In all, the deposit lists about 23,000 reagents; shown is an unselected part of those with a known target gene and a result. In the full data, 75 (0.33%) are marked active. 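Raw plate signals without normalisation; calls rest on plate z-scores that were not deposited; ratio present for only 364 wells.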 A number with no mark means an inactive call. Names joined by + are all predicted targets of the reagent. Reagent sequences are not shown. Not given: the dose of the treatment.

Target gene	amplicon	calcium entry signal, replicate 1 (fluorescence units)	calcium entry signal, replicate 2 (fluorescence units)	resting calcium signal, replicate 1 (fluorescence units)	resting calcium signal, replicate 2 (fluorescence units)
Snx6 (Sorting nexin 6)	DRSC03081	4.79e7		3.27e7	
obst-F (obstructor-F)	DRSC10805	1.78e7	3.03e7	9.29e6	1.57e7
Cog6 (Component of oligomeric golgi complex 6)	DRSC06806	3.79e7	2.84e7	1.53e7	1.21e7
CG12420	DRSC14514	3.21e7	4.42e7	1.59e7	1.99e7
ACXE (Adenylyl cyclase X E)	DRSC00847	5.10e7	3.03e7	2.10e7	1.42e7
Or43b (Odorant receptor 43b)	DRSC07486	3.84e7	3.22e7	1.77e7	1.78e7
CG11865	DRSC01872	5.11e7	3.16e7	2.15e7	1.53e7
CG12123	DRSC17818	2.23e7	2.66e7	1.07e7	1.16e7
CG15020	DRSC08474	1.99e7	2.88e7	9.72e6	1.23e7
Pu (Punch)	DRSC04645	2.97e7		1.65e7	
Kr (Kruppel)	DRSC04622	3.54e7	2.78e7	1.87e7	1.29e7
RpL31 (Ribosomal protein L31)	DRSC06716	1.84e7	3.35e7	1.21e7	1.91e7
Tbc1d8-9 (TBC1 domain family member 8/9)	DRSC11820	3.13e7	3.64e7	1.35e7	2.20e7
Fs (Follistatin)	DRSC06258	2.21e7	2.23e7	1.03e7	1.04e7
Fs (Follistatin)	DRSC06259	3.45e7	4.60e7	1.77e7	2.15e7
CG13937	DRSC08406	3.65e7	3.11e7	1.95e7	1.70e7
CG17266	DRSC04979	4.10e7	3.87e7	1.94e7	1.86e7
CG17266	DRSC22368	3.83e7	4.03e7	1.67e7	2.24e7
CG33299	DRSC01085	1.67e7	3.77e7	1.38e7	1.59e7
Trissin	DRSC14994	2.29e7	2.66e7	1.12e7	4.10e7
CG13306	DRSC09976	3.56e7	4.95e7	1.63e7	2.12e7
CG15800	DRSC04271	4.20e7	4.28e7	1.98e7	2.16e7
PH4alphaSG2 (prolyl-4-hydroxylase-alpha SG2)	DRSC15037	3.74e7	5.01e7	1.90e7	2.12e7
Anp (Andropin)	DRSC14112	2.70e7	2.41e7	1.42e7	1.25e7
Nrk (Neurospecific receptor kinase)	DRSC07480	2.48e7	3.21e7	1.32e7	1.50e7
pncr004:X (retired record)	DRSC19295	3.07e7	3.74e7	1.54e7	1.58e7
Osi17 (Osiris 17)	DRSC12284	2.87e7	2.13e7	1.21e7	1.00e7
tty (tweety)	DRSC20588	4.58e7	5.03e7	2.04e7	2.11e7
mRpS34 (mitochondrial ribosomal protein S34)	DRSC09918	3.85e7	5.28e7	1.67e7	2.21e7
CG14402	DRSC02386	4.25e7	5.96e7	2.36e7	2.56e7
CG10195	DRSC02026	6.38e7	4.90e7	3.03e7	2.03e7

Not a retest: 6 of the entries above.
Target gene	amplicon	calcium entry signal, replicate 1 (fluorescence units)	calcium entry signal, replicate 2 (fluorescence units)	resting calcium signal, replicate 1 (fluorescence units)	resting calcium signal, replicate 2 (fluorescence units)
pncr004:X (retired record)	DRSC19295	3.07e7	3.74e7	1.54e7	1.58e7
Osi17 (Osiris 17)	DRSC12284	2.87e7	2.13e7	1.21e7	1.00e7
tty (tweety)	DRSC20588	4.58e7	5.03e7	2.04e7	2.11e7
mRpS34 (mitochondrial ribosomal protein S34)	DRSC09918	3.85e7	5.28e7	1.67e7	2.21e7
CG14402	DRSC02386	4.25e7	5.96e7	2.36e7	2.56e7
CG10195	DRSC02026	6.38e7	4.90e7	3.03e7	2.03e7

The list goes on.
Target gene	amplicon	calcium entry signal, replicate 1 (fluorescence units)	calcium entry signal, replicate 2 (fluorescence units)	resting calcium signal, replicate 1 (fluorescence units)	resting calcium signal, replicate 2 (fluorescence units)
M1BP (Motif 1 Binding Protein)	DRSC16566	2.98e7	2.73e7	2.10e7	1.53e7
CG31800	DRSC22525	2.94e7	2.52e7	1.43e7	1.13e7
CG31638	DRSC02269	2.08e7	1.83e7	1.17e7	1.04e7
CG31638	DRSC03259	2.40e7	1.96e7	1.28e7	9.74e6
CSN1b (COP9 signalosome subunit 1b)	DRSC11108	3.17e7	3.82e7	1.78e7	2.89e7
CG8152	DRSC07083	3.65e7	4.55e7	1.93e7	2.00e7
CG15429	DRSC00444	1.90e7	2.03e7	1.09e7	1.01e7
CG8565	DRSC20112	4.72e7	3.48e7	2.20e7	1.43e7
Rab9Db + Rab9D + Rab9E	DRSC17656	3.08e7	3.73e7	1.38e7	1.87e7
CG9902	DRSC20212	2.44e7	3.05e7	1.37e7	1.38e7
Abd-B (Abdominal B)	DRSC14098	2.89e7	5.12e7	1.46e7	6.36e7
Abd-B (Abdominal B)	DRSC14337	2.80e7	6.03e7	1.50e7	6.35e7
CG13494	DRSC04139	4.93e7	4.96e7	2.35e7	2.23e7
CtsB (Cathepsin B)	DRSC19361	2.28e7	3.10e7	1.17e7	1.46e7
CG7607	DRSC10889	2.94e7	5.12e7	1.65e7	2.17e7
CG17159 + CG17162	DRSC20899	3.79e7	4.01e7	2.22e7	2.01e7
CG17159 + CG17162	DRSC20900	3.43e7	4.52e7	1.88e7	1.94e7
stas (Stasimon)	DRSC20104	6.11e7	5.53e7	2.57e7	2.17e7
CG6683	DRSC10694	4.03e7	3.33e7	2.76e7	1.39e7
lcs (la costa)	DRSC20580	3.62e7	3.92e7	1.77e7	1.63e7
Hand	DRSC02656	3.88e7	4.23e7	1.75e7	1.78e7
CG9743	DRSC16552	2.83e7	2.92e7	1.42e7	1.37e7
GstE9 (Glutathione S transferase E9)	DRSC06679	5.99e7	4.64e7	2.58e7	2.26e7
Ahcy (Adenosylhomocysteinase)	DRSC19329	2.32e7	2.68e7	1.25e7	1.38e7
BTBD9 (BTB (POZ) domain containing 9)	DRSC18148	3.35e7	4.41e7	1.57e7	2.10e7
BTBD9 (BTB (POZ) domain containing 9)	DRSC22371	3.98e7	5.70e7	1.70e7	2.48e7
CG13476	DRSC10019	5.18e7	7.12e7	2.38e7	2.67e7
